Test results published in article PMC10945694.
Results are given in words; binding and its absence hold for the method and conditions named. In cells and extracts the contact can be indirect. Some results given as binding are weak or reduced against the parent protein; the word gives no strength. Where a sequence is shown, tags or fusion partners need not be part of it.

Sequences of proteins named here, by UniProt entry; tags and fusion partners are left off.
UniProt Q6PDM2: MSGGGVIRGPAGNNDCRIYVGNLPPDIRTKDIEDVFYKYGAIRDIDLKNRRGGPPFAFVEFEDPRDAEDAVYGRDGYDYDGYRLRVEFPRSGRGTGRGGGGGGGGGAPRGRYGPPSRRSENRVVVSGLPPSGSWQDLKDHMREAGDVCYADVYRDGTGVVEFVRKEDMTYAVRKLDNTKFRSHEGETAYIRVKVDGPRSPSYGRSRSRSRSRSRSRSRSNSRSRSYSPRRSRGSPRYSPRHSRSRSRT
UniProt Q9R0U0: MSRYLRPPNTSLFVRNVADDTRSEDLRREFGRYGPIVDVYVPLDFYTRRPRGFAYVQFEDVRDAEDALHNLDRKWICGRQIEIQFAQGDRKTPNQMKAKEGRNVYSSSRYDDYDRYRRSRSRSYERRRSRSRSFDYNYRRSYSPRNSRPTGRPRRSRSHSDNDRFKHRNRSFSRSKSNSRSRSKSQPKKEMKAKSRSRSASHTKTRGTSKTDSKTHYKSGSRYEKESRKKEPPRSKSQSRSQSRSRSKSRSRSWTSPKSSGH

B1: HA-RBM15 (protein, UniProt Q0VBL3 1-962)
chain: MRSAGREPLPRRSPRWRRASPLCETSAGWRVSQLRRDDLRRPSTMKGKERSPVKPKRSRGGEDSSSRGERSKKLGGSGGSNGSSSGKTDSGGSRRSLHLDKSSSRGGSREYETGGGSSSSRLHSYSSPSTKNSSGGGESRSSSRGGGGESRSSGAASSAPGGGDGVEYKTLKISELGSQLSDEAVEDGLFHEFKRFGDVSVKISHLSGSGSGDERVAFVNFRRPEDARAAKHARGRLVLYDRPLKIEAVYVSRRRSRSPLDKDAYAPSSSVVGTSVGSHRHAPGGGGGQRSLSPGGAALGYRDYRLQQLALGRLPPPPPPPLPRELERERDYPFYDRVRPAYSLEPRVGAGAGAAPFREVDEISPEDDQRANRTLFLGNLDITVTENDLRRAFDRFGVITEVDIKRPSRGQTSTYGFLKFENLDMSHRAKLAMSGKIIIRNPIKIGYGKATPTTRLWVGGLGPWVPLAALAREFDRFGTIRTIDYRKGDSWAYIQYESLDAAHAAWTHMRGFPLGGPDRRLRVDFADTEHRYQQQYLQPLPLTHYELVTDTFGHRAPDPLRSARDRTPPLLYRDRDRDLYTDSDWVPPPPPVRERSARAATSAVTAYEPLDSLDRRRDGWSLDRDRGDRDLPSSRDQPRKRRLPEESGGRHLDRSPESERPRKQRHCTPSPDRSPELSSNRDRYNSDNDRSSRLLLLERSSPVRDRRGSLEKSQSDKRDRKNSASAERDRKHRTAAPTEGKNPLKKEDRSDGNAPSASTSSSKQKPPSQKQDGGTAPVAASSPKLCLAWQGMLLLKNSNFPSNMHLLQGDLQVASSLLVEGSTGGKVAQLKITQRLRLDQPKLDEVTRRIKVAGPNGYAILLAVPGSSDSRSSSSSATSDTAASTQRPLRNLVSYLKQKQAAGVISLPVGGNKDKENTGVLHAFPPCEFSQQFLDSPAKALAKSEEDYLVMIIVRAKLVNSG
B2: HA-SART1 (protein, UniProt Q9Z315 1-806)
chain: MGSSKKHRGEKEAAGTTAAAGTGGTTEQPPRHREHKKHKHRSSGGGSSGGERRKRSRERGSERGSGRRGAEAEARSGAHGRERSQAEPSERRVKREKRDDGYEAAASSKASSGDASSLSIEETNKLRAKLGLKPLEVNAVKKEAGTKEEPVAADVINPMALRQREELREKLAAAKEKRLLNQKLGKIKTLGEDDPWLDDTAAWIERSRQLQKEKDLAEKRAKLLEEMDQEFGVSTLVEEEFEQRRQDLYSARDLQGLTVEHAIDSFREGETVVLTLKDKGVLQDGEDVLVNVNMVDKERADKNVELRKKKPDYLPYAEDESVDDLAQQKPRSILAKYDEELEGERPHSFRLEQGGMADGLRERELEEIRTKLRLQAQSLSSVGPRLASEYLSPEEMVTFKKTKRRVKKIRKKEKEVIMRADDLLPLGDQTQDGDFGSRLRGRGRRRVPEVEEEALEDEEKDPVAQPPPSDDTRVENMDISDEEDGGALPPGSPEGLEEDEAELELQKQLEKGRRLRQLQQLQQLRDSGEKVLEIVKKLESRQRGWEEEEDPERKGTIVFNATSEFCRTLGEIPTYGLAGNREEQEELMDFERDEERSANGGSESDGEENIGWSTVNLDEEKQHQDFSASSTTILDEEPIVNRGLAAALLLCQNKGLLETTVQKVARVKAPNKSLPSAVYCIEDKMAIDDKYSRREEYRGFTQDFKEKDGYKPDVKIEYVDETGRKLTPKEAFRQLSHRFHGKGSGKMKTERRMKKLDEEALLKKMSSSDTPLGTVALLQEKQKAQKTPYIVLSGSGKSMNANTITK

target: FLAG-SRSF1 (UniProt Q6PDM2); experiment: co-IP; FLAG-SRSF1 or truncated SRSF1 together with HA-tagged SART1, RBM15 or SRSF10 in 293T cells; lysate, protein A agarose, western blotting

Row | binding | Molecule
1 | binds | HA-SRSF10 (from UniProt Q9R0U0 1-262)
2 | binds | B1
3 | binds | B2
